# The list does not hold the whole screen: it is rich in T/C values a quarter to a half above the control, in often repeated tests (any T/C) and in doses without a T/C. Other doses and runs of a compound stand elsewhere. T/C gives the treated animals as a percentage of the vehicle group. Some doses have a count of surviving animals in place of a T/C: the source files T/C as zero there, which appears to mark a toxic dose or a test without result, not a measured value. Some survivor counts are full or nearly so, which does not show that the dose was tolerated: survival well below the control is almost never listed, so the zero probably covers shortened survival too. Survivors were counted at the toxicity check, usually on the fifth day, unless a day is given; later deaths do not show. Schedule codes are those of the source, read here as Q, the interval in days (D) or hours (H), X, the number of doses. Some entries hold several experiments; their values stand side by side, smallest first. Signs of the kind (2×) say how often a value occurs here. Where survival is the endpoint, this PubChem deposit counts one and a half times the control or more as active, and values a quarter to a half above the control carry no call in these data; other NCI protocols may use other cut-offs. Some T/C values are followed by the survivors on the day toxicity was checked, most often the fifth; without a count, all were alive then.
# System: P388 leukemia ip, CD2F1 mice, survival T/C
# Experiment: NCI In Vivo Anticancer Drug Screen. Data for tumor model P388 Leukemia (intraperitoneal) in CD2F1 (CDF1) mice
# Conditions: T/C endpoint: median survival time, higher T/C = longer survival
# [1] = dose: 50.0 mg/kg/injection, schedule: Q01DX005 (ip), vehicle: water
# [2] = dose: 80.0 mg/kg/injection, schedule: Q01DX005 (ip), vehicle: water
compound,measurement,setting,value
CC(=O)N(C)c1ccc(Nc2cc(C)[nH]c3ccc4ncnc4c23)cc1,T/C,"dose: 6.25 mg/kg/injection, schedule: Q01DX009 (ip), vehicle: saline",126 % of control
same,T/C,"dose: 10.0 mg/kg/injection, schedule: Q01DX005 (ip), vehicle: water","120, 125, 132, 137 % of control"
same,T/C,"dose: 11.0 mg/kg/injection, schedule: Q01DX005 (ip), vehicle: saline",130 % of control
same,T/C,"dose: 12.5 mg/kg/injection, schedule: Q01DX005 (ip), vehicle: saline, evaluated on day 30",136 and 141 % of control
same,T/C,"dose: 12.5 mg/kg/injection, schedule: Q01DX005 (ip), vehicle: saline, evaluated on day 60",131 % of control
same,T/C,"dose: 12.5 mg/kg/injection, schedule: Q01DX005 (ip), vehicle: water","131, 132 (2×), 134, 136, 138, 140, 141, 142, 157 % of control"
same,T/C,"dose: 12.5 mg/kg/injection, schedule: Q01DX009 (ip), vehicle: saline",134 % of control
same,T/C,"dose: 16.0 mg/kg/injection, schedule: Q01DX005 (ip), vehicle: saline",128 and 129 % of control
same,T/C,"dose: 19.4 mg/kg/injection, schedule: Q04DX002 (ip), vehicle: saline",132 and 137 % of control
same,T/C,"dose: 20.0 mg/kg/injection, schedule: Q01DX005 (ip), vehicle: water","126, 128, 135, 143 % of control"
same,T/C,"dose: 24.0 mg/kg/injection, schedule: Q01DX005 (ip), vehicle: saline",129 and 130 % of control
same,T/C,"dose: 25.0 mg/kg/injection, schedule: Q01DX005 (ip), vehicle: saline, evaluated on day 30",141 and 144 % of control
same,T/C,"dose: 25.0 mg/kg/injection, schedule: Q01DX005 (ip), vehicle: saline, evaluated on day 60",140 % of control
same,T/C,"dose: 25.0 mg/kg/injection, schedule: Q01DX005 (ip), vehicle: water","125, 125 [5 of 6 alive], 127, 128 (2×), 130, 132, 138, 155, 185 % of control"
same,T/C,"dose: 25.0 mg/kg/injection, schedule: Q01DX009 (ip), vehicle: saline",143 % of control
same,T/C,"dose: 30.0 mg/kg/injection, schedule: Q01DX005 (ip), vehicle: saline, evaluated on day 30","143, 144, 154 % of control"
same,T/C,"dose: 30.0 mg/kg/injection, schedule: Q01DX005 (ip), vehicle: saline, evaluated on day 45","138, 141 (3×), 142, 144 (2×), 146 % of control"
same,T/C,"dose: 30.0 mg/kg/injection, schedule: Q01DX005 (ip), vehicle: saline, evaluated on day 60",130 and 158 % of control
same,T/C,"dose: 32.4 mg/kg/injection, schedule: Q04DX002 (ip), vehicle: saline",131 and 132 % of control
same,T/C,"dose: 36.0 mg/kg/injection, schedule: Q01DX005 (ip), vehicle: saline",135 and 137 % of control
same,T/C,"dose: 40.0 mg/kg/injection, schedule: Q01DX005 (ip), vehicle: water","140, 143, 150, 154 % of control"
same,T/C,"dose: 44.0 mg/kg/injection, schedule: Q01DX005 (ip), vehicle: saline, evaluated on day 30","142, 148, 150 % of control"
same,T/C,"dose: 44.0 mg/kg/injection, schedule: Q01DX005 (ip), vehicle: saline, evaluated on day 45","141 (3×), 142, 145, 148, 155, 157 % of control"
same,T/C,"dose: 44.0 mg/kg/injection, schedule: Q01DX005 (ip), vehicle: saline, evaluated on day 60","136, 146, 156 % of control"
same,T/C,"dose: 50.0 mg/kg/injection, schedule: Q01DX005 (ip), vehicle: saline, evaluated on day 30",135 % of control
same,T/C,"dose: 50.0 mg/kg/injection, schedule: Q01DX005 (ip), vehicle: saline, evaluated on day 60",135 % of control
same,T/C,[1],"141, 147 (2×), 151 (2×), 158, 166, 169 % of control"
same,survivor count,[1],1 of 6 and 2 of 6
same,T/C,"dose: 50.0 mg/kg/injection, schedule: Q01DX009 (ip), vehicle: saline",146 % of control
same,T/C,"dose: 54.0 mg/kg/injection, schedule: Q01DX005 (ip), vehicle: saline",134 and 145 % of control [9 of 10 alive]
same,T/C,"dose: 54.0 mg/kg/injection, schedule: Q04DX002 (ip), vehicle: saline",132 and 148 % of control
same,T/C,"dose: 67.0 mg/kg/injection, schedule: Q01DX005 (ip), vehicle: saline, evaluated on day 30","154, 160, 161 % of control"
same,T/C,"dose: 67.0 mg/kg/injection, schedule: Q01DX005 (ip), vehicle: saline, evaluated on day 45","144, 155, 156, 157 (2×), 161, 164, 166 % of control"
same,T/C,"dose: 67.0 mg/kg/injection, schedule: Q01DX005 (ip), vehicle: saline, evaluated on day 60","147, 157, 167 % of control"
same,survivor count,"dose: 75.0 mg/kg/injection, schedule: Q01DX005 (ip), vehicle: saline",5 of 5
same,survivor count,"dose: 80.0 mg/kg/injection, schedule: Q01DX005 (ip), vehicle: saline",5 of 10 and 8 of 10
same,T/C,[2],"146, 173, 188 % of control [5 of 6 alive]"
same,survivor count,[2],4 of 5
same,T/C,"dose: 90.0 mg/kg/injection, schedule: Q04DX002 (ip), vehicle: saline",138 % of control
same,T/C,"dose: 100.0 mg/kg/injection, schedule: Q01DX005 (ip), vehicle: saline, evaluated on day 30","101, 147 [8 of 10 alive], 171 % of control"
same,T/C,"dose: 100.0 mg/kg/injection, schedule: Q01DX005 (ip), vehicle: saline, evaluated on day 45","155, 161, 163, 168, 170, 185 % of control"
same,T/C,"dose: 100.0 mg/kg/injection, schedule: Q01DX005 (ip), vehicle: saline, evaluated on day 60","118 [7 of 10 alive], 186, 187, 190 % of control"
same,survivor count,"dose: 100.0 mg/kg/injection, schedule: Q01DX005 (ip), vehicle: saline","8 of 10, 10 of 10, 6 of 6"
same,survivor count,"dose: 100.0 mg/kg/injection, schedule: Q01DX005 (ip), vehicle: water","0 of 6, 1 of 6, 2 of 6, 3 of 6, 4 of 6, 6 of 6"
same,survivor count,"dose: 100.0 mg/kg/injection, schedule: Q01DX005 (iv), vehicle: saline",9 of 10
same,survivor count,"dose: 100.0 mg/kg/injection, schedule: Q01DX009 (ip), vehicle: saline",10 of 10
same,survivor count,"dose: 120.0 mg/kg/injection, schedule: Q01DX005 (ip), vehicle: saline",0 of 10 and 1 of 10
same,survivor count,"dose: 150.0 mg/kg/injection, schedule: Q01DX005 (ip), vehicle: saline","0 of 5, 3 of 10, 4 of 10 (2×), 7 of 10 (2×)"
same,survivor count,"dose: 150.0 mg/kg/injection, schedule: Q01DX005 (oral), vehicle: saline",3 of 5
same,survivor count,"dose: 150.0 mg/kg/injection, schedule: Q04DX002 (ip), vehicle: saline","0 of 5, 4 of 8, 5 of 8"
same,survivor count,"dose: 200.0 mg/kg/injection, schedule: Q01DX001 (ip), vehicle: saline",2 of 10
same,survivor count,"dose: 200.0 mg/kg/injection, schedule: Q01DX001 (iv), vehicle: saline",0 of 10
same,survivor count,"dose: 200.0 mg/kg/injection, schedule: Q01DX005 (ip), vehicle: saline",0 of 10
same,survivor count,"dose: 300.0 mg/kg/injection, schedule: Q01DX001 (ip), vehicle: saline",0 of 5
same,survivor count,"dose: 300.0 mg/kg/injection, schedule: Q01DX005 (ip), vehicle: saline",0 of 5
same,survivor count,"dose: 300.0 mg/kg/injection, schedule: Q04DX002 (ip), vehicle: saline",0 of 5
same,survivor count,"dose: 400.0 mg/kg/injection, schedule: Q01DX001 (ip), vehicle: saline",0 of 10
same,survivor count,"dose: 600.0 mg/kg/injection, schedule: Q01DX001 (ip), vehicle: saline",0 of 5
same,survivor count,"dose: 600.0 mg/kg/injection, schedule: Q04DX002 (ip), vehicle: saline",0 of 5
same,survivor count,"dose: 1200.0 mg/kg/injection, schedule: Q01DX001 (ip), vehicle: saline",0 of 5
CCCCn1c(C)nc2ccccc21,survivor count,"dose: 200.0 mg/kg/injection, schedule: Q01DX005 (ip), vehicle: saline with Tween-80",0 of 5
